Measurements reported in article PMC12499477.
Results are given in words; binding and its absence hold for the method and conditions named. Binding seen in cells or lysates may run through a third protein. Some binding calls cover weakened binding; strength is not graded here.

Target: T1, Golgi membrane protein 1 (GOLM1) (mouse (endogenous in primary podocytes)) (UniProt Q91XA2)
T1 sequence: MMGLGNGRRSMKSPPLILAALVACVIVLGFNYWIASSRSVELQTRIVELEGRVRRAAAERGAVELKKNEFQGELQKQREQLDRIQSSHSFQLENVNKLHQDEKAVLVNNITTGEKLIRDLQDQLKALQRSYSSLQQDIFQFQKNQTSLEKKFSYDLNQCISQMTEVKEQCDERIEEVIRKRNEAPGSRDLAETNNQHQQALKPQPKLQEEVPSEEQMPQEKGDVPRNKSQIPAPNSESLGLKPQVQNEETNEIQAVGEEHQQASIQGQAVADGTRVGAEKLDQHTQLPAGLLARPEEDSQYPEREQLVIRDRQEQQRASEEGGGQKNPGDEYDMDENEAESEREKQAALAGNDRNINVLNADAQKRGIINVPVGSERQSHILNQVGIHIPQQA
Assay: co-IP; podocyte lysates immunoprecipitated with anti-GOLM1 or IgG, then western blot for EGFR

binding: binds
Substance: epidermal growth factor receptor (EGFR) (from UniProt Q01279 25-1210)
